Experimental data: the supplement of paper PMC10849652
Some of the results follow.

Sequences of proteins named here, by UniProt entry; tags and fusion partners are left off. A change or cut given only in a name is not applied to a line headed by its entry.
UniProt Q2KHT3: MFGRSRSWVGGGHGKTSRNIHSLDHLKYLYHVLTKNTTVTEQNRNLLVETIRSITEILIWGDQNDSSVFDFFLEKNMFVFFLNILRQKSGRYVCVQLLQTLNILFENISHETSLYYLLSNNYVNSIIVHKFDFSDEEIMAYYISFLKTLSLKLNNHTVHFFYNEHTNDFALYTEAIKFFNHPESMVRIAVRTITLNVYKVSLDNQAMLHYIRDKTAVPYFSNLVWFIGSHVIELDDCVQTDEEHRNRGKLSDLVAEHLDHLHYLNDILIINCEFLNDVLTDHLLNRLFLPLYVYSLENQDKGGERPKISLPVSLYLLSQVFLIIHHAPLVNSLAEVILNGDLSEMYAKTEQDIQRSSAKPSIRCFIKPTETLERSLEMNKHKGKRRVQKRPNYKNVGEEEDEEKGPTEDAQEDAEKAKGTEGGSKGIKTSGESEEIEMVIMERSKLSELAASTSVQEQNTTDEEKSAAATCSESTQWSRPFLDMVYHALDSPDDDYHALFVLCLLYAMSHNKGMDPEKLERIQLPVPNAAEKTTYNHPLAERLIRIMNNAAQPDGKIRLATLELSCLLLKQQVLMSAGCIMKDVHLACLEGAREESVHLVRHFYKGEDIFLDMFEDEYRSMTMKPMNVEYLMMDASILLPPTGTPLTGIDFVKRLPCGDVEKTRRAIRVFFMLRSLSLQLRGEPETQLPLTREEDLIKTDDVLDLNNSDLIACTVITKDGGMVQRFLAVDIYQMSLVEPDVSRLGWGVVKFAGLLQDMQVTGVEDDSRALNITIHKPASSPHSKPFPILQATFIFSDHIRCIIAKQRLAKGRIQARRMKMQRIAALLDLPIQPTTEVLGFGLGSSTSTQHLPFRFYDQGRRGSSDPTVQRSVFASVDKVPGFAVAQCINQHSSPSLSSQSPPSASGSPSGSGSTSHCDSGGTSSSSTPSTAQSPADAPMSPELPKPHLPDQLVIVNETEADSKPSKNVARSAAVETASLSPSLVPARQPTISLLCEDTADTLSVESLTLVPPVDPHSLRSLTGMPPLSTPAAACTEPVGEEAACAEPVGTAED
UniProt Q96NY7: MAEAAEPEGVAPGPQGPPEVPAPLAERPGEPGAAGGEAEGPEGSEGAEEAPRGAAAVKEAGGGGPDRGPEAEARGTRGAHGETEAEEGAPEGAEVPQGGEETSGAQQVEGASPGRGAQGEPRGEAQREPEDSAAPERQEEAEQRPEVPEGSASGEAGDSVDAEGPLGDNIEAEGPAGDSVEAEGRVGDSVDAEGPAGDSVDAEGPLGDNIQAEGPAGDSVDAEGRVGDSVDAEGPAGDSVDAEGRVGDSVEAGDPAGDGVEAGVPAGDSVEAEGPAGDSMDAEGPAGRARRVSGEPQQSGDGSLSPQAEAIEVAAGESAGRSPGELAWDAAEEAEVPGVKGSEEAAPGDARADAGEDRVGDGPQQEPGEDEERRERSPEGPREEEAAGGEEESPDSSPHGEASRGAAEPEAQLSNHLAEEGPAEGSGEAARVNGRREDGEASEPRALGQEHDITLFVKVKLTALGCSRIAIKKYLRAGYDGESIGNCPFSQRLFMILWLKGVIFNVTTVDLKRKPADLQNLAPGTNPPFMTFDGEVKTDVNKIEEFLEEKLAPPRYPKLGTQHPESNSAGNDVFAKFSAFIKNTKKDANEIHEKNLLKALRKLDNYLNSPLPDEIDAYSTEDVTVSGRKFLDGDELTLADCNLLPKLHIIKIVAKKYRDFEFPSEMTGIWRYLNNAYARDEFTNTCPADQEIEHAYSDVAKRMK
UniProt P51790: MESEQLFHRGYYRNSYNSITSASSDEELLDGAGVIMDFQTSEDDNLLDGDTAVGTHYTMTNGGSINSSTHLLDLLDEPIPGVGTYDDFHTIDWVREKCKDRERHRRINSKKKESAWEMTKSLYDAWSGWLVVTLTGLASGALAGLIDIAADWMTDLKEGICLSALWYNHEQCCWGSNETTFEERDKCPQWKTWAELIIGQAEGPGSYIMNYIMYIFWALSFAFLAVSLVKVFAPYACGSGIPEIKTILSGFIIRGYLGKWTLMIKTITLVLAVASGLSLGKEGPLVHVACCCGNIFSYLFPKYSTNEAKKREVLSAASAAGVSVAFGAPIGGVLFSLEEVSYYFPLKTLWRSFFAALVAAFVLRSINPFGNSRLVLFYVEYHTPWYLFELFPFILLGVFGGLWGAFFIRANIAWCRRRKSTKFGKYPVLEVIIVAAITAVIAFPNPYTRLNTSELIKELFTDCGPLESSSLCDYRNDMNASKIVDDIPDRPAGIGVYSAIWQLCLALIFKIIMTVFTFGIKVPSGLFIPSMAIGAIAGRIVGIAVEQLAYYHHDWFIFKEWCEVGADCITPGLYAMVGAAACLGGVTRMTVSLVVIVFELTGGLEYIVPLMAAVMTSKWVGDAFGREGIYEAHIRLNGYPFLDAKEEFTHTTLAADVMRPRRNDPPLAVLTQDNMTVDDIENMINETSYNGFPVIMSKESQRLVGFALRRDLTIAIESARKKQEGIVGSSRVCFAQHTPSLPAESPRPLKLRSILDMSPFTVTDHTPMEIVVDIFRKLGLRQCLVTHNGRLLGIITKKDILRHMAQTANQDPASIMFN
UniProt P09496: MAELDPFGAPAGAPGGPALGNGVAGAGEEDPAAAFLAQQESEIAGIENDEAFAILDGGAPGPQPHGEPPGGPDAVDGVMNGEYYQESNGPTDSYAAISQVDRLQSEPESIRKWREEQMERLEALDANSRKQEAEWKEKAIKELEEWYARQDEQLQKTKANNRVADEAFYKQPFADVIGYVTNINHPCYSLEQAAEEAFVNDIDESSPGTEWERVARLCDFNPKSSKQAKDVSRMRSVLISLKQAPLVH
UniProt Q9UDT6: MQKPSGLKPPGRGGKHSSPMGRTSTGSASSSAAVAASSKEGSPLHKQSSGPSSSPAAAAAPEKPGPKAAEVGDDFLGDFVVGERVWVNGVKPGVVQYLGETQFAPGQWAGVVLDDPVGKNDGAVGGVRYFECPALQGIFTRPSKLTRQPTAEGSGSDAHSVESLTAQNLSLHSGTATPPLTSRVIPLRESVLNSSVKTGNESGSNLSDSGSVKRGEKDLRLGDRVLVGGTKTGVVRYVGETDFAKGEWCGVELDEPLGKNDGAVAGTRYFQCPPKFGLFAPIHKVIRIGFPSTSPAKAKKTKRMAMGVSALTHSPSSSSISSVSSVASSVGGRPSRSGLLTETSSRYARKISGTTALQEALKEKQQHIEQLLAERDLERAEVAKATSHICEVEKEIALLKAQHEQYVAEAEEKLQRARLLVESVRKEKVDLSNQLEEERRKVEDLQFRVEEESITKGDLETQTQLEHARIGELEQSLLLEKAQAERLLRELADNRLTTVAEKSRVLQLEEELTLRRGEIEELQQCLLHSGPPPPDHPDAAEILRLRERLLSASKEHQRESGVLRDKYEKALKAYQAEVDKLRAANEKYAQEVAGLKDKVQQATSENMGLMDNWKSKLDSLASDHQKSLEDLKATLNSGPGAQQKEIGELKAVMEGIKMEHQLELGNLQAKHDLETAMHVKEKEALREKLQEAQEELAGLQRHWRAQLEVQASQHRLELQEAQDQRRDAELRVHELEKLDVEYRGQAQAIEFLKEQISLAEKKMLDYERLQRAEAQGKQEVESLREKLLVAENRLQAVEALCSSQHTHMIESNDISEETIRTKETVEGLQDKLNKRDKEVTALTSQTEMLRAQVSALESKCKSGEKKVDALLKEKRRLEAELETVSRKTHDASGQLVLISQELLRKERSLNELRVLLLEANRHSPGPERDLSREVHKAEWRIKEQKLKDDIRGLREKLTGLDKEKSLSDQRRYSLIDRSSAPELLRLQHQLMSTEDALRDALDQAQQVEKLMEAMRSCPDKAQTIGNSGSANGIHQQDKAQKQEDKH
UniProt P51798: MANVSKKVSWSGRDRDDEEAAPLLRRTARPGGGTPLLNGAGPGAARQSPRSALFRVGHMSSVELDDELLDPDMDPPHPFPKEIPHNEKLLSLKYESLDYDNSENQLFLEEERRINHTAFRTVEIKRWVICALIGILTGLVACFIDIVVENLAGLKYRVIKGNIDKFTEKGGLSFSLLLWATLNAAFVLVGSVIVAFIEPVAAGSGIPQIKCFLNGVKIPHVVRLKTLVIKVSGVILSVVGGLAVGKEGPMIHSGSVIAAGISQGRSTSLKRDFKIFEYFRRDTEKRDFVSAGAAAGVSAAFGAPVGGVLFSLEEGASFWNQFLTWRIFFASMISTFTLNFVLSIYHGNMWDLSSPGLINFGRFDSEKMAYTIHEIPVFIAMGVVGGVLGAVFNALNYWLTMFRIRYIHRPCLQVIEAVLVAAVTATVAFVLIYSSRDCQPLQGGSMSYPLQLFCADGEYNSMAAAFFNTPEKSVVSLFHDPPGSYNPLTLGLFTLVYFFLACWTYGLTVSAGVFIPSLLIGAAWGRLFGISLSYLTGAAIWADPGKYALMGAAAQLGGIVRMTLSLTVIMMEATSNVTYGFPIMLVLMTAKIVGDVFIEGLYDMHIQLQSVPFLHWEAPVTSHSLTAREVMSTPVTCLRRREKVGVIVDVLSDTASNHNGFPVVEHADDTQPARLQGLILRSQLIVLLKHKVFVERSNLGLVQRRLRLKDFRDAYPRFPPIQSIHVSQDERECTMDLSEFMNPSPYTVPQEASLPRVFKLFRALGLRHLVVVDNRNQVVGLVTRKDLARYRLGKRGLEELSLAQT
UniProt P51788: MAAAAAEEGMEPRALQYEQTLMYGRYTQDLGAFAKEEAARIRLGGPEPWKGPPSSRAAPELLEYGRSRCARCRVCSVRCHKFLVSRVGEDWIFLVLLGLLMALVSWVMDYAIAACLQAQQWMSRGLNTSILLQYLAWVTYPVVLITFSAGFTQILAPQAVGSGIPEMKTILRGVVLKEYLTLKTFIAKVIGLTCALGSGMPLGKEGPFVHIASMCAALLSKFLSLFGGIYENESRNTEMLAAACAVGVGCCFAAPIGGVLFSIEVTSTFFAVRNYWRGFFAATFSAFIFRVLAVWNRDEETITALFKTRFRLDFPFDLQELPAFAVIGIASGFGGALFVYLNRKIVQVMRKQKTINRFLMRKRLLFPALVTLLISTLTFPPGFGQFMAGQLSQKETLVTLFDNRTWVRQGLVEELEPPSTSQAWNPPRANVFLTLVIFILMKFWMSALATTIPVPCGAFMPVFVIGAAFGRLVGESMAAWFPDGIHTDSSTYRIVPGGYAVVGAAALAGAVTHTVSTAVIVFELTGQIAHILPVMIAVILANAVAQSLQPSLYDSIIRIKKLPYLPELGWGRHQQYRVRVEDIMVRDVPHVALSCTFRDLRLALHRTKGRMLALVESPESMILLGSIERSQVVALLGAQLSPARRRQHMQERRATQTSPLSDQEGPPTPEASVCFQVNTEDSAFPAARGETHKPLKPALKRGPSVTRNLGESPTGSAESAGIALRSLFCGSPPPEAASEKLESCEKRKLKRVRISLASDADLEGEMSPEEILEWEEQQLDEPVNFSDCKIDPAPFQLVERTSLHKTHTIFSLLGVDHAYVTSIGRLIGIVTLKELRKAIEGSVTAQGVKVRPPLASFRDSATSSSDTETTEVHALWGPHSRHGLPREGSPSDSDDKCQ
UniProt Q9Y696: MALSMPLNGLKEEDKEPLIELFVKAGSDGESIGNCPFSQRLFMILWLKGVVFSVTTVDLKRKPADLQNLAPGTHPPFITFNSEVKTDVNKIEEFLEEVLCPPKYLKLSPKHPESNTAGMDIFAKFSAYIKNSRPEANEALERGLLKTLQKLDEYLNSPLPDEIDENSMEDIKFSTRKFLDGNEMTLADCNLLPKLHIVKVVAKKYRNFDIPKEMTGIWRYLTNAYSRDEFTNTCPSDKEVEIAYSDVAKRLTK
UniProt P49759: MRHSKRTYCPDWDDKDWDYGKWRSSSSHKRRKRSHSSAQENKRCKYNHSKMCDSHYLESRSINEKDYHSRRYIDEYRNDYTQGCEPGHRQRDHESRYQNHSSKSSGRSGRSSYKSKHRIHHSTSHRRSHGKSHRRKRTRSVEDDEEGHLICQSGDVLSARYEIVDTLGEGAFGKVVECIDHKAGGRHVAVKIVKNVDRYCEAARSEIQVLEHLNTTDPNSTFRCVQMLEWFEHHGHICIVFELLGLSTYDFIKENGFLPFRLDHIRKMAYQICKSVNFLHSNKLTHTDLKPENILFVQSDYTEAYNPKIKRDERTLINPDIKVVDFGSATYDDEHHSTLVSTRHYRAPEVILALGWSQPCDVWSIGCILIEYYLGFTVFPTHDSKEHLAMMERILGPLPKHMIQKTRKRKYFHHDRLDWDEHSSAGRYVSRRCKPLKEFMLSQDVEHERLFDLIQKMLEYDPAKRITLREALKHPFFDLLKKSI

Assays:
Test in all cases: log2 fold change, soluble protein after heating vs DMSO (PISA); higher = thermal stabilisation; K562 lysate, 10 uM; active = over 0.2 and 3.5 SD of the protein, either way, in both replicates (recomputed)
lapatinib = compound: CS(=O)(=O)CCNCc1ccc(-c2ccc3ncnc(Nc4ccc(OCc5cccc(F)c5)c(Cl)c4)c3c2)o1 [lapatinib]
Method in brief: (§1)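 Pellets of K562 cells were dounce-homogenised in PBS pH 7.4 with 1 mM MgCl2, and the crude extract was held at 1 mg/mL protein for a 30 min treatment with 10 μM compound. Aliquots were heated for 3 min over 48°C-58°C and pooled before NP-40 was added to 0.5% at 4°C. The supernatant from 21,000xg for 90 min was quantified by TMTpro 16plex LC-MS/MS with channel sums equalised. Values are reported from duplicates as log-two fold change in thermal stability relative to solvent controls.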

crizotinib = compound: C[C@@H](Oc1cc(-c2cnn(C3CCNCC3)c2)cnc1N)c1c(Cl)ccc(F)c1Cl [crizotinib]
Method in brief: as §1

[1] = compound: C[C@H](C1=CC=C(C=C1)C(=O)NC2=C3C=CNC3=NC=C2)N
Method in brief: as §1

duvelisib = compound: C[C@H](Nc1ncnc2nc[nH]c12)c1cc2cccc(Cl)c2c(=O)n1-c1ccccc1 [duvelisib]
Method in brief: as §1

gandotinib = compound: Cc1cc(Nc2cc(CN3CCOCC3)c3nc(C)c(Cc4ccc(Cl)cc4F)n3n2)n[nH]1 [gandotinib]
Method in brief: as §1

tozasertib = compound: Cc1cc(Nc2cc(N3CCN(C)CC3)nc(Sc3ccc(NC(=O)C4CC4)cc3)n2)n[nH]1 [tozasertib]
Method in brief: as §1

doramapimod = compound: Cc1ccc(-n2nc(C(C)(C)C)cc2NC(=O)Nc2ccc(OCCN3CCOCC3)c3ccccc23)cc1 [doramapimod]
Method in brief: as §1

bafetinib = compound: Cc1ccc(NC(=O)c2ccc(CN3CC[C@H](N(C)C)C3)c(C(F)(F)F)c2)cc1Nc1nccc(-c2cncnc2)n1 [bafetinib]
Method in brief: as §1

[2] = compound: Cc1cccc(CC(=O)N2CCc3c2ccc(-c2cn(C)c4ncnc(N)c24)c3F)n1
Method in brief: as §1

nilotinib = compound: Cc1cn(-c2cc(NC(=O)c3ccc(C)c(Nc4nccc(-c5cccnc5)n4)c3)cc(C(F)(F)F)c2)cn1 [nilotinib]
Method in brief: as §1

[3] = compound: Cc1nc(Nc2n[nH]c3c2CN(C(=O)N[C@H](CN(C)C)c2ccccc2)C3(C)C)c2sccc2n1
Method in brief: as §1

dasatinib = compound: Cc1nc(Nc2ncc(C(=O)Nc3c(C)cccc3Cl)s2)cc(N2CCN(CCO)CC2)n1 [dasatinib]
Method in brief: as §1

[4] = compound: Cc1ncc(-c2ccnc(Nc3ccc(S(C)(=O)=O)cc3)n2)n1C(C)C
Method in brief: as §1

[5] = compound: Cn1cc(-c2ccc3c(c2)CCN3C(=O)Cc2cccc(C(F)(F)F)c2)c2c(N)ncnc21
Method in brief: as §1

quisinostat = compound: Cn1cc(CNCC2CCN(c3ncc(C(=O)NO)cn3)CC2)c2ccccc21 [quisinostat]
Method in brief: as §1

tipifarnib = compound: Cn1cncc1[C@@](N)(c1ccc(Cl)cc1)c1ccc2c(c1)c(-c1cccc(Cl)c1)cc(=O)n2C [tipifarnib]
Method in brief: as §1

[6] = compound: NC(=O)Nc1cc(-c2cccc(F)c2)sc1C(=O)N[C@H]1CCCNC1
Method in brief: as §1

[7] = compound: NC(=O)c1cnc(N[C@@H]2CCCC[C@@H]2N)nc1Nc1cccc(-n2nccn2)c1
Method in brief: as §1

[8] = compound: NC1(c2ccc(-c3nc4ccn5c(=O)[nH]nc5c4cc3-c3ccccc3)cc2)CCC1
Method in brief: as §1

pictilisib = compound: CS(=O)(=O)N1CCN(Cc2cc3nc(-c4cccc5[nH]ncc45)nc(N4CCOCC4)c3s2)CC1 [pictilisib]
Method in brief: as §1

Measured: log2 fold change

CLEC16A (UniProt Q2KHT3)
inactive: lapatinib -0.008 | crizotinib 0.003 | [1] 0.152 | duvelisib -0.008 | gandotinib -0.046 | tozasertib -0.044 | doramapimod 0.023 | bafetinib -0.06 | [2] -0.142 | nilotinib 0.025 | [3] -0.015 | dasatinib 0.071 | [4] -0.017 | [5] 0.053 | quisinostat -0.029 | tipifarnib -0.022 | [6] -0.012 | [7] 0.001 | [8] 0.001

CLIC6 (UniProt Q96NY7)
inactive: lapatinib 0.135 | crizotinib -0.056 | [1] -0.2 | duvelisib -0.026 | gandotinib 0.094 | tozasertib -0.009 | doramapimod 0.004 | bafetinib -0.059 | [2] 0.036 | dasatinib 0.039 | [5] -0.024 | quisinostat -0.081 | [6] 0.104 | [7] 0.05 | [8] -0.097

CLCN3 isoform 2 (UniProt P51790)
inactive: lapatinib 0.047 | crizotinib -0.047 | [1] -0.075 | duvelisib 0.034 | gandotinib -0.018 | tozasertib -0.011 | doramapimod 0.026 | bafetinib -0.005 | [2] 0.024 | nilotinib 0.017 | [3] -0.018 | dasatinib -0.012 | [4] 0.006 | [5] -0.008 | quisinostat 0.01 | tipifarnib -0.012 | [6] 0.04 | [7] 0.022 | [8] 0.024

CLTA isoform 2 (UniProt P09496)
inactive: lapatinib -0.054 | crizotinib 0.128 | duvelisib -0.109 | tozasertib 0.13 | doramapimod 0.041 | bafetinib -0.114 | nilotinib 0.066 | [3] -0.033 | dasatinib 0.024 | [4] -0.028 | [5] 0.006 | quisinostat 0.035 | tipifarnib 0.063 | [6] -0.004 | [7] -0.088 | [8] -0.086

CLCN3 (UniProt P51790)
inactive: lapatinib 0.004 | crizotinib 0.014 | [1] -0.09 | duvelisib -0.017 | gandotinib -0.106 | tozasertib -0.008 | doramapimod 0.033 | bafetinib -0.004 | [2] 0.13 | nilotinib 0.15 | [3] -0.043 | dasatinib -0.033 | [4] 0.117 | [5] 0.046 | quisinostat 0.056 | tipifarnib -0.097 | [6] -0.064 | [7] -0.002 | [8] 0.071

CLIP2 (UniProt Q9UDT6)
inactive: lapatinib -0.033 | crizotinib -0.004 | [1] 0 | duvelisib 0.013 | gandotinib 0.007 | tozasertib 0.161 | doramapimod 0.092 | bafetinib 0.012 | [2] 0.061 | dasatinib -0.018 | [5] 0.087 | quisinostat -0.117 | [6] 0.026 | [7] -0.018 | [8] -0.045

CLCN7 (UniProt P51798)
inactive: lapatinib -0.02 | crizotinib -0.078 | [1] -0.065 | duvelisib 0.009 | gandotinib -0.014 | tozasertib -0.01 | doramapimod 0.057 | bafetinib -0.063 | [2] 0.092 | nilotinib 0.033 | [3] -0.015 | dasatinib 0.021 | [4] 0.028 | [5] -0.021 | quisinostat -0.066 | tipifarnib 0.014 | [6] -0.023 | [7] -0.015 | [8] 0.013

CLASRP (UniProt Q8N2M8)
inactive: lapatinib 0.011 | crizotinib -0.03 | [1] -0.036 | duvelisib 0.028 | gandotinib 0.044 | tozasertib -0.031 | doramapimod 0.023 | bafetinib -0.119 | [2] -0.045 | nilotinib -0.008 | [3] -0.099 | dasatinib -0.025 | [4] -0.082 | [5] -0.038 | quisinostat -0.057 | tipifarnib 0.004 | [6] -0.039 | [7] 0 | [8] 0.015

CLCN2 (UniProt P51788)
inactive: lapatinib 0.043 | crizotinib -0.022 | [1] -0.031 | duvelisib -0.015 | gandotinib 0.081 | tozasertib -0.005 | doramapimod 0.005 | bafetinib 0.015 | [2] -0.044 | dasatinib -0.003 | [5] 0.054 | quisinostat 0.068 | [6] 0.036 | [7] 0.067 | [8] 0.044

CLIC1 (UniProt O00299)
inactive: lapatinib 0.004 | crizotinib 0.007 | [1] 0.01 | duvelisib -0.011 | gandotinib -0.01 | tozasertib -0.011 | doramapimod 0.002 | bafetinib 0.028 | [2] 0.003 | nilotinib 0.014 | [3] -0.016 | dasatinib -0.004 | [4] 0.002 | [5] -0.008 | quisinostat 0.038 | tipifarnib 0.031 | [6] -0.011 | [7] -0.012 | [8] -0.001

CLIP4 (UniProt Q8N3C7)
inactive: lapatinib 0.035 | crizotinib -0.047 | [1] -0.124 | gandotinib 0.051 | tozasertib 0.072 | doramapimod 0.074 | bafetinib -0.018 | [2] -0.006 | nilotinib 0.049 | [3] 0.087 | [4] -0.086 | quisinostat -0.017 | tipifarnib -0.053 | [6] -0.001 | [7] 0.005 | [8] 0.01

CLTA (UniProt P09496)
inactive: lapatinib -0.015 | crizotinib 0.117 | [1] 0.023 | duvelisib 0.019 | gandotinib 0.011 | tozasertib 0.011 | doramapimod 0.019 | bafetinib 0.019 | [2] -0.016 | nilotinib 0.037 | [3] -0.033 | dasatinib 0.063 | [4] 0.026 | [5] 0.014 | quisinostat 0.168 | tipifarnib 0.046 | [6] -0.034 | [7] -0.028 | [8] 0.014

CLUAP1 (UniProt Q96AJ1)
inactive: lapatinib -0.094 | crizotinib 0.039 | [1] -0.268 | duvelisib 0.103 | gandotinib 0.098 | tozasertib -0.041 | doramapimod -0.096 | [2] 0.025 | dasatinib 0.015 | [5] 0.039 | quisinostat -0.274 | [6] -0.054 | [7] 0.077 | [8] -0.074

CLIC4 (UniProt Q9Y696)
inactive: lapatinib -0.011 | crizotinib -0.024 | [1] -0.054 | duvelisib 0.013 | gandotinib 0.05 | tozasertib -0.004 | doramapimod -0.017 | bafetinib -0.001 | [2] 0.074 | nilotinib -0.004 | [3] 0.014 | dasatinib 0.02 | [4] 0.01 | [5] -0.031 | quisinostat -0.032 | tipifarnib -0.01 | [6] 0.021 | [7] -0.008 | [8] 0.007

Copied from above (two entries):
CLIC1 (UniProt O00299)
inactive: lapatinib 0.004 | crizotinib 0.007 | [1] 0.01 | duvelisib -0.011 | gandotinib -0.01 | tozasertib -0.011 | doramapimod 0.002 | bafetinib 0.028 | [2] 0.003 | nilotinib 0.014 | [3] -0.016 | dasatinib -0.004 | [4] 0.002 | [5] -0.008 | quisinostat 0.038 | tipifarnib 0.031 | [6] -0.011 | [7] -0.012 | [8] -0.001

CLIP4 (UniProt Q8N3C7)
inactive: lapatinib 0.035 | crizotinib -0.047 | [1] -0.124 | gandotinib 0.051 | tozasertib 0.072 | doramapimod 0.074 | bafetinib -0.018 | [2] -0.006 | nilotinib 0.049 | [3] 0.087 | [4] -0.086 | quisinostat -0.017 | tipifarnib -0.053 | [6] -0.001 | [7] 0.005 | [8] 0.01

(next part)

CLK1 isoform 3 (UniProt P49759)
inactive: lapatinib -0.102 | [1] -0.13 | gandotinib 0.208 | tozasertib 0.079 | bafetinib -0.103 | [2] 0.231 | nilotinib 0.1 | [3] -0.057 | [4] 0.055 | tipifarnib -0.021 | [7] 0.22 | [8] -0.042

CHST11 (UniProt Q9NPF2)
inactive: pictilisib -0.058 | crizotinib 0.01 | [1] -0.037 | duvelisib -0.026 | gandotinib 0.046 | tozasertib -0.009 | doramapimod -0.006 | bafetinib -0.05 | [2] 0.062 | nilotinib 0.036 | [3] -0.091 | dasatinib -0.025 | [4] 0.022 | [5] -0.082 | quisinostat -0.059 | tipifarnib 0.018 | [6] 0.032 | [8] 0.03
